Assay results taken from the supplement of paper PMC10849652.
This is one part of the list.

By UniProt entry, the sequences of proteins in these tests, tags left out. Where a name states a change or a piece, a line headed by the entry shows the natural chain unless it says otherwise.
UniProt P42166: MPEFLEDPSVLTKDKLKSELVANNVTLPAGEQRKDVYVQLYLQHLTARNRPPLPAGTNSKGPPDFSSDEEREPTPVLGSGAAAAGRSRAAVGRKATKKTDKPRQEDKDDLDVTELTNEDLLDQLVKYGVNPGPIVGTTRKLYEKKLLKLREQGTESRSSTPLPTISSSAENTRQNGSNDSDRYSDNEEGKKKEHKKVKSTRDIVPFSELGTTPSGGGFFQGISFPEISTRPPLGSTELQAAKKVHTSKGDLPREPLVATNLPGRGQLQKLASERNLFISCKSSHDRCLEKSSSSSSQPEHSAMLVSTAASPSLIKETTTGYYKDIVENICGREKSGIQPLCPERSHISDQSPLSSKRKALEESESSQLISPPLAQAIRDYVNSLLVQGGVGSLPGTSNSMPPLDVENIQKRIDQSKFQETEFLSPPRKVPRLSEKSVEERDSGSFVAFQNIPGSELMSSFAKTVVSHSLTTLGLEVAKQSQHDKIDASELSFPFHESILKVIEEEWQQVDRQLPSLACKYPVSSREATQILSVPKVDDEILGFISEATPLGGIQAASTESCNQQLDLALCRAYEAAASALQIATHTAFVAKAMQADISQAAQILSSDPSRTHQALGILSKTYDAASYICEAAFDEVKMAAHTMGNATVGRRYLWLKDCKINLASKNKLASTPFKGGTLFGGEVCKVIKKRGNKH
UniProt Q6PI78: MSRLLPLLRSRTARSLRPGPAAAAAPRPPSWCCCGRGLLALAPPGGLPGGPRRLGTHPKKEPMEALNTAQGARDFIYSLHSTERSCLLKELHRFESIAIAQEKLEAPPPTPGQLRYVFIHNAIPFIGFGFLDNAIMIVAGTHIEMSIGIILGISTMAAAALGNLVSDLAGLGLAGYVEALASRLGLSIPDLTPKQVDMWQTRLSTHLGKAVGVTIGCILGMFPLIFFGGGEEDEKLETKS
UniProt Q13445: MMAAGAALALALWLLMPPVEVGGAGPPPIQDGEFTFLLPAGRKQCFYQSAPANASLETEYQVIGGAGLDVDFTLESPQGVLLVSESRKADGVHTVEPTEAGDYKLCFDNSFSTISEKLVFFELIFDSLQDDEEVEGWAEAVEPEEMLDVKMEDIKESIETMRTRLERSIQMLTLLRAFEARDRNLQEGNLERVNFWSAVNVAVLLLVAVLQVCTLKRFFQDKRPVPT
UniProt Q9NYL9: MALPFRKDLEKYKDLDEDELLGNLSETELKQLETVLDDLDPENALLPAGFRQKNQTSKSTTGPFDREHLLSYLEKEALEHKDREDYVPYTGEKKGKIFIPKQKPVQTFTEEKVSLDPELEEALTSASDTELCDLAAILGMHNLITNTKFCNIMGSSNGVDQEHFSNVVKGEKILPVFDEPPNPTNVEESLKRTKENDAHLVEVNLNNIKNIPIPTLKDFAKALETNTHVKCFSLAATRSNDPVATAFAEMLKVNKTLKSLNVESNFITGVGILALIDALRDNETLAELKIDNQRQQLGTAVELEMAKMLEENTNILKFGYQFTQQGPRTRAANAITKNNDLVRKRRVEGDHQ
UniProt Q9H0V1: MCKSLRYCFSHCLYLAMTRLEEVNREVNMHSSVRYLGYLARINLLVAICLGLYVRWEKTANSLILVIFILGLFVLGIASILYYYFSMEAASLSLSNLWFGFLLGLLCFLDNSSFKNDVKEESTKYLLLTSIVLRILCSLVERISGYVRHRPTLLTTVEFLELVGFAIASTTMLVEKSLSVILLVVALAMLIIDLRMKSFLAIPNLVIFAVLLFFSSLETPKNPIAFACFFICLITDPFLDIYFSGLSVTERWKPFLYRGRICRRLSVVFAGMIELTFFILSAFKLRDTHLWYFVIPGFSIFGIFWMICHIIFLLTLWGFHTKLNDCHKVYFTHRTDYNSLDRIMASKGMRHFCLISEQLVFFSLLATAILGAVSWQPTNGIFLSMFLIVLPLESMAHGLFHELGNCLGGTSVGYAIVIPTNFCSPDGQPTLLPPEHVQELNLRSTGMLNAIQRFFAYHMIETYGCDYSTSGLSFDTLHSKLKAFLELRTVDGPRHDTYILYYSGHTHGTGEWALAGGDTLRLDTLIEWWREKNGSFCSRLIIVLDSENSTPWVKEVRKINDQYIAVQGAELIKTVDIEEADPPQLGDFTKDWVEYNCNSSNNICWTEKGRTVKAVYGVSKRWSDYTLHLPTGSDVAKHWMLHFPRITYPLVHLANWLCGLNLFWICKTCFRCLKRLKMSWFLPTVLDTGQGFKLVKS
UniProt Q9Y3Q3: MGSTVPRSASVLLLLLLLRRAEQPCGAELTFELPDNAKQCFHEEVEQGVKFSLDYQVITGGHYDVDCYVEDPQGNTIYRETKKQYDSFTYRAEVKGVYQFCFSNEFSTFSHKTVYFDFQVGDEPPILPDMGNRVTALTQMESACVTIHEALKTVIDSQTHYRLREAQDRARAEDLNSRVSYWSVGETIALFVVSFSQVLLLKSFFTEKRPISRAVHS
UniProt Q9NZR1: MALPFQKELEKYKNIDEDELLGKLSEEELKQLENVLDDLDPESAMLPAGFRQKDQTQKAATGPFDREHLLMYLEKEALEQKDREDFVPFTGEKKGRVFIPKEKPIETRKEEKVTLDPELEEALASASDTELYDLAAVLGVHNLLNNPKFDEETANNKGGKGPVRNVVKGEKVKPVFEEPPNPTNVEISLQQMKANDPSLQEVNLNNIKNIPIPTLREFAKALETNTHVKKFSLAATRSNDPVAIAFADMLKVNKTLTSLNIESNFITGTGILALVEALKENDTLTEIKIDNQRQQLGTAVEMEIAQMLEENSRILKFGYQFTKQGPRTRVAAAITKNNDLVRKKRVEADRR
UniProt Q86UB9: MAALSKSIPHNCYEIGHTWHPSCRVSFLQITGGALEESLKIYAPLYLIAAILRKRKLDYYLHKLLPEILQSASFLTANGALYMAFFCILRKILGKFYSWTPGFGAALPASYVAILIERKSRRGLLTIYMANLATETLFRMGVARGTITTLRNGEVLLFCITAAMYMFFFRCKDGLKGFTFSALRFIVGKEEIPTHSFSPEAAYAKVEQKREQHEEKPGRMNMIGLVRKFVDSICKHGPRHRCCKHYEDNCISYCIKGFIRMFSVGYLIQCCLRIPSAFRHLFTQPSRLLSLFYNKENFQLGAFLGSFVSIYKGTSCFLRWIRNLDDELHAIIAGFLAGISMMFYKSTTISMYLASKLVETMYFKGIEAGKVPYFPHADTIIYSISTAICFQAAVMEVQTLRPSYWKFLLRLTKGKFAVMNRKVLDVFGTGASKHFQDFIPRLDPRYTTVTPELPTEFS
UniProt Q96SK2: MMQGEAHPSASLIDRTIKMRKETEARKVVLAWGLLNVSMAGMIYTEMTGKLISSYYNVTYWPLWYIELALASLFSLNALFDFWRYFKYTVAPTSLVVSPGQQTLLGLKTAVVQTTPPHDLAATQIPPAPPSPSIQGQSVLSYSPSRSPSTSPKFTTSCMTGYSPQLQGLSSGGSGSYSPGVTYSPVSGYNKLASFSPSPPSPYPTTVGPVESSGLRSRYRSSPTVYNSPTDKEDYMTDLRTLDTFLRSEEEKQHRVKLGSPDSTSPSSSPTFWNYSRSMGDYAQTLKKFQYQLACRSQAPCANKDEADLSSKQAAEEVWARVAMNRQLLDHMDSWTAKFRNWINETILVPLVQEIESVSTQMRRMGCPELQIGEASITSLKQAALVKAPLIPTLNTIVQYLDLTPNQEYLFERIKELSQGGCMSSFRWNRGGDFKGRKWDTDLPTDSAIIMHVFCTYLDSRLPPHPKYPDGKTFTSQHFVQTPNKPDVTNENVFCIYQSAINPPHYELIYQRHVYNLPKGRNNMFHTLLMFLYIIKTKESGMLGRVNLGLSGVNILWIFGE
UniProt Q9Y2S6, whole entry, looked up: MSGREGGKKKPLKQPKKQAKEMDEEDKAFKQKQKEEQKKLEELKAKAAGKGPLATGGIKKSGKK
UniProt Q6UW68: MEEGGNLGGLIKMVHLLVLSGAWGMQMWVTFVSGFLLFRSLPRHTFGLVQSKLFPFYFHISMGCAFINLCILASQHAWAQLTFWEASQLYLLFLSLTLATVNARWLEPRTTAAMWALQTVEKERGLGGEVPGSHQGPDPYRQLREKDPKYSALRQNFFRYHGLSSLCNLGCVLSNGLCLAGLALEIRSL
UniProt Q9UM00: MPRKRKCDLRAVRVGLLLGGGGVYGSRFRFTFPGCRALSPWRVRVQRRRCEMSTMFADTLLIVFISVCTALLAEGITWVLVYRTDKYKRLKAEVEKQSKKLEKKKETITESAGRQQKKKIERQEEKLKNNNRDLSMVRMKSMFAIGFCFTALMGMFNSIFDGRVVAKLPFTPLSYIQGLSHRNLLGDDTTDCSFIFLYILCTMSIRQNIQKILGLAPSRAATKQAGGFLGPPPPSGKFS
UniProt Q9Y320, whole entry, looked up: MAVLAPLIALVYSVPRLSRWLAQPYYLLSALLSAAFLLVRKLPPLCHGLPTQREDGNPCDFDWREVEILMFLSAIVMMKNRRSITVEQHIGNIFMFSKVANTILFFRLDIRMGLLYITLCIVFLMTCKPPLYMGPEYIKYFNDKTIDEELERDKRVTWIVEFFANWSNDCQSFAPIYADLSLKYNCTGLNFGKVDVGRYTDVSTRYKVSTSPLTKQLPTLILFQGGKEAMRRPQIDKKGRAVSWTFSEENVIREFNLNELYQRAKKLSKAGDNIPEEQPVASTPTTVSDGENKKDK
UniProt Q8N511: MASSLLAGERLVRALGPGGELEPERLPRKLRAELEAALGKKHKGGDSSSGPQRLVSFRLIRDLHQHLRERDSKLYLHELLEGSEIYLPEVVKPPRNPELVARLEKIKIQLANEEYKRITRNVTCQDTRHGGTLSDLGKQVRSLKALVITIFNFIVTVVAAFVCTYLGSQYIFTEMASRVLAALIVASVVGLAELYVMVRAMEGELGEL
UniProt O14763, whole entry, looked up: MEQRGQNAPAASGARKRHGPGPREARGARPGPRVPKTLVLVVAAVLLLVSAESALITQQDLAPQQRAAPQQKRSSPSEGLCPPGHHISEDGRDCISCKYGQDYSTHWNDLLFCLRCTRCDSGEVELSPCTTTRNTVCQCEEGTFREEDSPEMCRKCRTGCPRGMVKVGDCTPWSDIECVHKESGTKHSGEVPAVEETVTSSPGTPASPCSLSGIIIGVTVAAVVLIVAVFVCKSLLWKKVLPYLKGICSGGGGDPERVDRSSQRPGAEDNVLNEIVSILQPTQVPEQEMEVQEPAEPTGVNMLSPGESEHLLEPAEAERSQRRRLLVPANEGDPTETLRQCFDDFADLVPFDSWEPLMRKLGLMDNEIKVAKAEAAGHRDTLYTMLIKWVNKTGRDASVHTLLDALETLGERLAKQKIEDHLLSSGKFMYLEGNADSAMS
UniProt Q9H1E5: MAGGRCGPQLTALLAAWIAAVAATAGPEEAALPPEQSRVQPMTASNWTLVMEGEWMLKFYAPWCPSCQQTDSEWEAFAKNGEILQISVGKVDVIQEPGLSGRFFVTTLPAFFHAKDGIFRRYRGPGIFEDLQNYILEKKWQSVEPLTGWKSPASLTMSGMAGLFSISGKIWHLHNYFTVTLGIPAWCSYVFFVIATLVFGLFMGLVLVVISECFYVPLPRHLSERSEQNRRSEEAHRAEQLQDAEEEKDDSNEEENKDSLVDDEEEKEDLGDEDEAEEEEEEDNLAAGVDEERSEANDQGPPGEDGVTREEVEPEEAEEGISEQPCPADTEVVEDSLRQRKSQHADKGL
UniProt Q9BVC6: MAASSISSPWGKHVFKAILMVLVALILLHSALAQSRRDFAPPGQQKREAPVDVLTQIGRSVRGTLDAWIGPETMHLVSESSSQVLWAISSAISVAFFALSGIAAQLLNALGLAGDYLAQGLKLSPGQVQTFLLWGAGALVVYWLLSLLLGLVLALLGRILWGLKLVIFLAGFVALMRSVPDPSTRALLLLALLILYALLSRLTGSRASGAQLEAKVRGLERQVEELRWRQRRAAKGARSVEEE
UniProt Q9H061: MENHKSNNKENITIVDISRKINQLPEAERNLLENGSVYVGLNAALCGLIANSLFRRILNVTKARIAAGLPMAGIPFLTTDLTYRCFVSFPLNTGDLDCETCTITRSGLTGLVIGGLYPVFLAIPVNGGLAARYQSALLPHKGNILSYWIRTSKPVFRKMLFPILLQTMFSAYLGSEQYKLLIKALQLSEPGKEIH
UniProt Q96I45: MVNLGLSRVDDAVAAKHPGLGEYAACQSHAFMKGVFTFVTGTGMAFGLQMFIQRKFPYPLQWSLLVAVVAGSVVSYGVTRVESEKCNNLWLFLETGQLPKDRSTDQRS
UniProt Q9Y3A6: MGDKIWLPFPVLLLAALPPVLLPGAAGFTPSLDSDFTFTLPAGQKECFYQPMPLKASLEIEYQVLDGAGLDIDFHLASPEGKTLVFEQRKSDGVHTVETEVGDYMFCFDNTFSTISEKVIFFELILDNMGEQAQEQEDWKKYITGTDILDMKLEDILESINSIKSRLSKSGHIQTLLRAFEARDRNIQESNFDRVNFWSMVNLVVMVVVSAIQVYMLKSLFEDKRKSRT
UniProt Q9NWH2: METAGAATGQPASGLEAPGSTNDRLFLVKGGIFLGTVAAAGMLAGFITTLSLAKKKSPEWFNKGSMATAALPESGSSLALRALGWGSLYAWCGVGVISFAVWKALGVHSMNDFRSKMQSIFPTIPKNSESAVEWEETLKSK
UniProt P63313: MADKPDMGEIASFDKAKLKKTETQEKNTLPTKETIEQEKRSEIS

Legend:
Experiment in all cases: log2 fold change, soluble protein after heating vs DMSO (PISA); higher = thermal stabilisation; K562 cells, 10 uM, 30 min; active = over 0.2 and 3.5 SD of the protein, either way, in both replicates (recomputed)
saracatinib = compound: CN1CCN(CCOc2cc(OC3CCOCC3)c3c(Nc4c(Cl)ccc5c4OCO5)ncnc3c2)CC1 [saracatinib]
Outline: (§1)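 Thermal stability values are relative to control samples and come from duplicates. They are expressed as log2 fold changes. For measurement, K562 cells (2×10^6 cells/mL) received 10 μM compound for 30 min, and aliquots were heated for 3 min over 48°C-58°C, pooled, and extracted at 4°C in PBS with 0.5% NP-40. Soluble protein, the supernatant after 21,000xg for 90 min, was quantified by TMTpro 16plex LC-MS/MS with equalised channel sums.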

sotrastaurin = compound: CN1CCN(c2nc(C3=C(c4c[nH]c5ccccc45)C(=O)NC3=O)c3ccccc3n2)CC1 [sotrastaurin]
Outline: as §1

alvocidib = compound: CN1CC[C@H](c2c(O)cc(O)c3c(=O)cc(-c4ccccc4Cl)oc23)[C@H](O)C1 [alvocidib]
Outline: as §1

Tubastatin A = compound: CN1CCc2c(c3ccccc3n2Cc2ccc(C(=O)NO)cc2)C1 [Tubastatin A]
Outline: as §1

[1] = compound: CNC(=O)C1=CC=CC=C1NC2=NC(=NC=C2Cl)NC3=C(C=C(C=C3)N4CCOCC4)OC
Outline: as §1

defactinib = compound: CNC(=O)c1ccc(Nc2ncc(C(F)(F)F)c(NCc3nccnc3N(C)S(C)(=O)=O)n2)cc1 [defactinib]
Outline: as §1

rucaparib = compound: CNCc1ccc(-c2[nH]c3cc(F)cc4c3c2CCNC4=O)cc1 [rucaparib]
Outline: as §1

[2] = compound: CNc1nc(-c2ccc3c(N)n[nH]c3c2)cc(N2C[C@@H](C(=O)NC3CCCCC3)CC[C@H]2C)n1
Outline: as §1

encorafenib = compound: COC(=O)N[C@@H](C)CNc1nccc(-c2cn(C(C)C)nc2-c2cc(Cl)cc(NS(C)(=O)=O)c2F)n1 [encorafenib]
Outline: as §1

[3] = compound: COC(=O)[C@H](CCSC)NC(=O)C1=C(C=C(C=C1)NC[C@H](CS)N)C2=CC=CC=C2
Outline: as §1

Measured: log2 fold change

TMPO (UniProt P42166)
inactive: saracatinib 0.016 | sotrastaurin -0.009 | alvocidib -0.014 | Tubastatin A -0.021 | [1] -0.077 | defactinib -0.061 | rucaparib -0.04 | [2] -0.081 | encorafenib 0.021 | [3] 0.06

TMEM65 (UniProt Q6PI78)
inactive: saracatinib 0.082 | sotrastaurin 0.135 | alvocidib 0.056 | Tubastatin A 0.042 | [1] 0.03 | defactinib 0.113 | rucaparib 0.216 | [2] 0.063 | encorafenib 0.072 | [3] -0.05

TMEM97 (UniProt Q5BJF2)
inactive: saracatinib 0.011 | sotrastaurin 0.087 | alvocidib 0.009 | Tubastatin A 0.091 | [1] 0.041 | defactinib -0.021 | rucaparib 0 | [2] -0.007 | encorafenib -0.057 | [3] 0.039

TMED1 (UniProt Q13445)
inactive: saracatinib 0.051 | sotrastaurin 0.02 | alvocidib 0.018 | Tubastatin A -0.018 | [1] 0.027 | defactinib -0.014 | rucaparib -0.023 | [2] -0.006 | encorafenib 0.022 | [3] 0.061

TMOD3 (UniProt Q9NYL9)
inactive: saracatinib -0.016 | sotrastaurin -0.072 | alvocidib 0.009 | Tubastatin A -0.003 | [1] 0.014 | defactinib -0.073 | rucaparib 0.141 | [2] 0.042 | encorafenib 0.058 | [3] -0.033

TMEM168 (UniProt Q9H0V1)
inactive: saracatinib -0.289 | sotrastaurin 0.109 | alvocidib 0.026 | Tubastatin A -0.107 | [1] 0.023 | defactinib -0.025 | rucaparib 0 | [2] -0.048 | encorafenib -0.048 | [3] -0.066

TM2D3 (UniProt Q9BRN9)
inactive: saracatinib -0.087 | sotrastaurin -0.08 | alvocidib 0.124 | Tubastatin A 0.021 | [1] 0.067 | defactinib -0.078 | rucaparib -0.02 | [2] 0.078 | encorafenib 0.041 | [3] -0.006

TMED3 (UniProt Q9Y3Q3)
inactive: saracatinib -0.006 | sotrastaurin -0.019 | alvocidib -0.02 | Tubastatin A -0.026 | [1] 0.014 | defactinib -0.027 | rucaparib -0.075 | [2] -0.023 | encorafenib 0.035 | [3] 0.077

TMOD2 (UniProt Q9NZR1)
inactive: saracatinib -0.01 | sotrastaurin 0.114 | alvocidib -0.13 | Tubastatin A 0.061 | [1] 0.105 | defactinib 0.047 | rucaparib -0.194 | [2] 0.04 | encorafenib -0.009 | [3] -0.004

TMEM135 (UniProt Q86UB9)
inactive: saracatinib 0.101 | sotrastaurin 0.063 | alvocidib -0.072 | Tubastatin A 0.025 | [1] -0.041 | defactinib -0.018 | rucaparib -0.042 | [2] 0.017 | encorafenib 0.018 | [3] -0.093

TMEM209 (UniProt Q96SK2)
inactive: saracatinib -0.008 | sotrastaurin -0.036 | alvocidib -0.075 | Tubastatin A 0.05 | [1] -0.077 | defactinib -0.022 | rucaparib -0.05 | [2] -0.026 | encorafenib 0.025 | [3] -0.069

TMA7 (UniProt Q9Y2S6)
inactive: saracatinib -0.022 | sotrastaurin 0.003 | alvocidib 0.01 | Tubastatin A -0.006 | [1] -0.018 | defactinib -0.05 | rucaparib 0.035 | [2] -0.007 | encorafenib -0.069 | [3] -0.011

TMEM205 (UniProt Q6UW68)
inactive: saracatinib 0.029 | sotrastaurin 0.145 | alvocidib -0.067 | Tubastatin A 0.086 | [1] 0.065 | defactinib 0.022 | rucaparib -0.017 | [2] -0.187 | encorafenib -0.03 | [3] 0.066

TMCO1 (UniProt Q9UM00)
inactive: saracatinib -0.001 | sotrastaurin 0.054 | alvocidib -0.04 | Tubastatin A 0.018 | [1] 0.011 | defactinib -0.047 | rucaparib 0.006 | [2] -0.03 | encorafenib 0 | [3] -0.04

TLN1 (UniProt Q9Y490)
inactive: saracatinib 0.003 | sotrastaurin -0.056 | alvocidib -0.058 | Tubastatin A 0.007 | [1] 0.063 | defactinib -0.061 | rucaparib -0.011 | [2] 0.021 | encorafenib 0.057 | [3] -0.036

TMX2 (UniProt Q9Y320)
inactive: saracatinib -0.012 | sotrastaurin 0.026 | alvocidib -0.034 | Tubastatin A 0.029 | [1] 0.023 | defactinib -0.042 | rucaparib -0.025 | [2] 0.054 | encorafenib -0.005 | [3] 0.022

TM9SF3 (UniProt Q9HD45)
inactive: saracatinib 0.062 | sotrastaurin 0.082 | alvocidib -0.107 | Tubastatin A -0.049 | [1] 0.052 | defactinib -0.021 | rucaparib 0.012 | [2] 0.044 | encorafenib -0.006 | [3] 0.026

TLE4 isoform 3 (UniProt Q04727)
inactive: saracatinib -0.003 | sotrastaurin 0.002 | alvocidib 0.007 | Tubastatin A -0.034 | [1] -0.028 | defactinib -0.017 | rucaparib -0.024 | [2] -0.009 | encorafenib -0.014 | [3] 0.009

TMEM199 (UniProt Q8N511)
inactive: saracatinib -0.009 | sotrastaurin 0.037 | alvocidib 0.094 | Tubastatin A -0.062 | [1] 0.092 | defactinib 0.029 | rucaparib -0.009 | [2] -0.038 | encorafenib -0.035 | [3] 0.063

TNFRSF10B (UniProt O14763)
inactive: saracatinib -0.106 | sotrastaurin 0.019 | alvocidib -0.069 | Tubastatin A 0.06 | [1] -0.029 | defactinib 0.026 | rucaparib -0.099 | [2] -0.014 | encorafenib 0.026 | [3] 0.026

TLR4 (UniProt O00206)
inactive: saracatinib -0.235 | sotrastaurin 0.083 | alvocidib 0.062 | Tubastatin A 0.113 | [1] -0.306 | defactinib 0.006 | rucaparib -0.114 | [2] -0.133 | encorafenib -0.072 | [3] 0.066

TMX4 (UniProt Q9H1E5)
inactive: saracatinib -0.091 | sotrastaurin -0.007 | alvocidib 0.109 | Tubastatin A 0.017 | [1] -0.009 | defactinib -0.058 | rucaparib 0.065 | [2] -0.072 | encorafenib -0.041 | [3] -0.085

TMEM109 (UniProt Q9BVC6)
inactive: saracatinib -0.033 | sotrastaurin -0.004 | alvocidib 0.042 | Tubastatin A -0.055 | [1] 0 | defactinib 0.008 | rucaparib 0.028 | [2] 0.014 | encorafenib -0.085 | [3] 0.038

TMEM11 (UniProt P17152)
inactive: saracatinib 0.042 | sotrastaurin 0.004 | alvocidib -0.069 | Tubastatin A -0.058 | [1] 0.071 | defactinib -0.07 | rucaparib -0.105 | [2] -0.058 | encorafenib 0.062 | [3] -0.023

TMEM126A (UniProt Q9H061)
inactive: saracatinib -0.003 | sotrastaurin 0.054 | alvocidib 0.003 | Tubastatin A -0.006 | [1] -0.015 | defactinib 0 | rucaparib -0.008 | [2] -0.077 | encorafenib -0.042 | [3] 0.023

TMEM141 (UniProt Q96I45)
inactive: saracatinib 0.092 | sotrastaurin 0.073 | alvocidib 0.002 | Tubastatin A -0.002 | [1] 0.048 | defactinib -0.046 | rucaparib -0.061 | [2] -0.107 | encorafenib 0 | [3] 0.076

TMED5 (UniProt Q9Y3A6)
inactive: saracatinib -0.003 | sotrastaurin 0.029 | alvocidib -0.002 | Tubastatin A -0.024 | [1] -0.006 | defactinib 0.001 | rucaparib 0.046 | [2] -0.076 | encorafenib 0.031 | [3] 0.002

2 records picked at random from the list so far, as already listed:
TMED5 (UniProt Q9Y3A6)
inactive: saracatinib -0.003 | sotrastaurin 0.029 | alvocidib -0.002 | Tubastatin A -0.024 | [1] -0.006 | defactinib 0.001 | rucaparib 0.046 | [2] -0.076 | encorafenib 0.031 | [3] 0.002

TMEM109 (UniProt Q9BVC6)
inactive: saracatinib -0.033 | sotrastaurin -0.004 | alvocidib 0.042 | Tubastatin A -0.055 | [1] 0 | defactinib 0.008 | rucaparib 0.028 | [2] 0.014 | encorafenib -0.085 | [3] 0.038

The listing continues:

TMEM242 (UniProt Q9NWH2)
inactive: saracatinib 0.1 | sotrastaurin 0.039 | alvocidib 0.04 | Tubastatin A 0.065 | [1] 0.038 | defactinib -0.056 | rucaparib -0.016 | [2] 0.014 | encorafenib 0.023 | [3] 0.079

TMSB10 (UniProt P63313)
inactive: saracatinib -0.058 | sotrastaurin 0.206 | alvocidib -0.069 | Tubastatin A 0.013 | [1] -0.028 | defactinib -0.104 | rucaparib 0.194 | [2] -0.038 | encorafenib -0.154 | [3] 0.13
